This is one part of the list.

Amino acid sequences for entries named in this document (tags omitted).
UniProt Q0JBA9, entry or part of it: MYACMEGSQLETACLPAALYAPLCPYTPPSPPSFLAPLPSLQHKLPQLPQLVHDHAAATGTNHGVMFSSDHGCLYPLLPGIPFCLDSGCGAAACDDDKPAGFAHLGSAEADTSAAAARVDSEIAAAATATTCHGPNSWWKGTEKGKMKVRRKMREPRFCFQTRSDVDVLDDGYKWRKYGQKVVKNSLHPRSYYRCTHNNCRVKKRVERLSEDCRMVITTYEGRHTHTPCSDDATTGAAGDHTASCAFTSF

The assay deals with OsWRKY34 (Oryza sativa, UniProt Q0JBA9 1-250). In words: protein-binding microarray (RPBM); PBS, 2% BSA, 51.3 ng/ul salmon testes DNA, 50 uM zinc acetate, 200 nM TF, 25 C, 1 h; high values mean tight binding. Conditions: protein: recombinant; tags: N-terminal polyhistidine and DsRed monomer fusion (pET32a); label: CyDye5-dUTP incorporated in the synthesized complementary strand; 3' TTTTT single-stranded linker to array surface; dsDNA, one strand shown. The method in brief:
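For the binding signal, per-feature fluorescence intensity was read in arbitrary units on an Axon 4000B scanner. Before scanning, a 2% BSA-blocked custom Agilent array made double-stranded with Cy5-dUTP was washed after 1 h at 25 °C with 200 nM protein and 50 µM zinc acetate. The proteins were Ni–NTA-purified transcription factors with N-terminal polyhistidine and DsRed fusions, expressed in E. coli BL21-CodonPlus.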
Turning to “ACCCTGCTCGGTTTCTTGATTCTCTCTCTGCCTGTCGTCGCGGAGTCACCTAGTGCAG”, the binding signal was 9680 fluorescence intensity (a.u.).

With “GTCCTGCCGAGATTTAGTCAACTACTATTAGGTATGTGGTCGGAGTCACCTAGTGCAG”, the binding signal is 9890 fluorescence intensity (a.u.).

Take “TTGGTTTGTTCCTCTTTGTTTTTTGGGTAACCTTTGAGCCCGGAGTCACCTAGTGCAG”: the binding signal is 8080 fluorescence intensity (a.u.).

Regarding “TTTCTCCCGCATGGATCCTGCACGAGCATTTTTTTTATTTCGGAGTCACCTAGTGCAG”, the binding signal is 9480 fluorescence intensity (a.u.).

“GTCCGCTTTTCTCTTCCTCGTCTTCTTCTCCGGCGAGCTCCGGAGTCACCTAGTGCAG”: the binding signal was 10600 fluorescence intensity (a.u.).

In the case of “ACCCAATTATTAACCTTTTGCCCTTAACTGCATCTCCCGCCGGAGTCACCTAGTGCAG”, the binding signal is 9850 fluorescence intensity (a.u.).

Turning to “ATGCCATTGACCTCGAAACCATTGCACAACCTCATCGTCTCGGAGTCACCTAGTGCAG”, the binding signal is 8950 fluorescence intensity (a.u.).

Turning to “TACCAATGGAGTAAACAACAGCCAATATTGCATCTGCTTTCGGAGTCACCTAGTGCAG”, the binding signal is 8430 fluorescence intensity (a.u.).

For the sequence “ATCTGATTTTTATTTTCAGCATATGCATCGTTTTCATGTTCGGAGTCACCTAGTGCAG”, the binding signal is 10200 fluorescence intensity (a.u.).

Turning to “ACCATTTTTGTCAAGCCATTACAGCGCCTGATGTCCAAGTCGGAGTCACCTAGTGCAG”, the binding signal was 10800 fluorescence intensity (a.u.).

In the case of “CTGCCGCCTCTAATTGACAAGCATTCAACCATATATATGTCGGAGTCACCTAGTGCAG”, the binding signal is 9450 fluorescence intensity (a.u.).

As for “CGTTCTGCCTCGCCTACATGATCTGTGAGCCAGCTTAGCCCGGAGTCACCTAGTGCAG”, the binding signal was 9000 fluorescence intensity (a.u.).

As to “TAAGACAAATGGTCAAACGTTGAACACGGATATCCATGGCCGGAGTCACCTAGTGCAG”, the binding signal is 8030 fluorescence intensity (a.u.).

For “AATTTCCCCATCGATCATTTTATTTTTTTTCTTATAAATACGGAGTCACCTAGTGCAG”, the binding signal was 10700 fluorescence intensity (a.u.).

As to “AAGCACTCACTCTCTCTTGCTAGCTCTCTCCACCACAAGACGGAGTCACCTAGTGCAG”, the binding signal is 9100 fluorescence intensity (a.u.).

Take “TTGTTGGCTCAATATAGTTATCCTCCTTTGACCCAGTTAACGGAGTCACCTAGTGCAG”: the binding signal is 9120 fluorescence intensity (a.u.).

“TCCAACCTTGACTGTGAACCAAACACACCCTAAGCCTAAACGGAGTCACCTAGTGCAG”: the binding signal was 8280 fluorescence intensity (a.u.).

Regarding “ACTAGCATTAATTAGCCACTCCTTCATTAAACTATCTTATCGGAGTCACCTAGTGCAG”, the binding signal was 9580 fluorescence intensity (a.u.).

Regarding “TAGCGGTCGATAACCTCTCTCTCACCCGTACTACCCACCACGGAGTCACCTAGTGCAG”, the binding signal was 8390 fluorescence intensity (a.u.).

“ATATTGTACTACTAACCTCTTTTGCACACAATTTACCAAACGGAGTCACCTAGTGCAG”: the binding signal is 9400 fluorescence intensity (a.u.).

For “TGCTCTTAGGCTAACATAAACCAATGTTTTCTTCTCGTTCCGGAGTCACCTAGTGCAG”, the binding signal is 8210 fluorescence intensity (a.u.).

Take “AGGGAGGAGGGGAATTCGTACTCAGTAGTTTCCGGGCTTTCGGAGTCACCTAGTGCAG”: the binding signal was 8310 fluorescence intensity (a.u.).

For “GTCACGTTTTTGCGGTGTCTCCCAGCCAATTACACATTTTCGGAGTCACCTAGTGCAG”, the binding signal is 10500 fluorescence intensity (a.u.).

As to “GTCAGTTGCCATAAATTGGCCTCGCCGGCCCGAGGCTTTCCGGAGTCACCTAGTGCAG”, the binding signal was 8400 fluorescence intensity (a.u.).

On to “GGGCGGTTCTTCTTCTTCGTCTTCGTCTTGGCGCCGGTCGCGGAGTCACCTAGTGCAG”, for which the binding signal was 17200 fluorescence intensity (a.u.).

Consider “CTCCTCGCCGCCGCCATCGCTGCCCCACCGCCTCCCCACCCGGAGTCACCTAGTGCAG”, for which the binding signal was 8060 fluorescence intensity (a.u.).

Turning to “TCTTCGTGCTGACTCTATCGCGCTCTCTCTCTCCCATCTTCGGAGTCACCTAGTGCAG”, the binding signal was 12500 fluorescence intensity (a.u.).

As for “ACACCATTGACACGTTTGCTTATTCAGATTGTGGTTCATGCGGAGTCACCTAGTGCAG”, the binding signal was 10200 fluorescence intensity (a.u.).

As for “GAGACCCTAATCCCGTGTTTCCGTTCTCCACCAGTAGAGACGGAGTCACCTAGTGCAG”, the binding signal was 8740 fluorescence intensity (a.u.).

On to “ACCACACCACATATCATCCCAGACTCCGCCACGGCCGCGCCGGAGTCACCTAGTGCAG”, for which the binding signal was 8550 fluorescence intensity (a.u.).

Consider “GAAATCTCACCCGCTCTCTCTCTCTCGCGCGCGCGCCGCCCGGAGTCACCTAGTGCAG”, for which the binding signal is 8630 fluorescence intensity (a.u.).

In the case of “TCAGTAGTCAACCAAATGTAACTAGTCTCTTCTTACCGGACGGAGTCACCTAGTGCAG”, the binding signal was 8070 fluorescence intensity (a.u.).

“TTGTTACTACTTTGGGCAGTGTTTAGCTCCTTTAAACTTCCGGAGTCACCTAGTGCAG”: the binding signal was 9200 fluorescence intensity (a.u.).

As for “CCATTCCCACATCGATCGGTCACTGCACTCGCGCTCTCTTCGGAGTCACCTAGTGCAG”, the binding signal was 16200 fluorescence intensity (a.u.).

Consider “AAACATATTCTTGAATCTTCGCTTGTGTTTCTACGATATCCGGAGTCACCTAGTGCAG”, for which the binding signal was 9090 fluorescence intensity (a.u.).

For “TTCCTCTATACTGCACTGTCGCTCGTAGTCTACTCCACCCCGGAGTCACCTAGTGCAG”, the binding signal is 8290 fluorescence intensity (a.u.).

Take “GGGCTGCTTTCACCTTTTGCTTTCCAACCTCTTCTTGCCACGGAGTCACCTAGTGCAG”: the binding signal is 13400 fluorescence intensity (a.u.).

As to “CCCATCGACCTATCCCTACACGGTTGCACATGCCGATACACGGAGTCACCTAGTGCAG”, the binding signal was 11900 fluorescence intensity (a.u.).

In the case of “GAGGTGGTATTATTATCCTTAACATTTATTATGGGCCTTTCGGAGTCACCTAGTGCAG”, the binding signal is 12800 fluorescence intensity (a.u.).

As to “GCTTCCGAGCTCGATCTCTCCCAAGCTCAATTCCATTCTCCGGAGTCACCTAGTGCAG”, the binding signal is 8470 fluorescence intensity (a.u.).

As to “AACATTACTTTATACGTGACTTATGCTTTTTATTTTTTTTCGGAGTCACCTAGTGCAG”, the binding signal is 11400 fluorescence intensity (a.u.).

In the case of “TGTTTTTTTTCCTATTTATCTGTTTTTTTTATTCCTGCGACGGAGTCACCTAGTGCAG”, the binding signal is 8120 fluorescence intensity (a.u.).

The values are drawn from paper PMC7819943, “Rice protein-binding microarrays: a tool to detect cis-acting elements near promoter regions in rice”.
